{"source": "patent US20020165617A1", "about": "“Phospholipid-coated implants” (DESTINY PHARMA LIMITED, priority 1999, published 2002)", "test": "Calcium phosphate precipitation on coated smooth titanium coupon in Simulated Body Fluid", "settings": "222 μmol/mL", "excerpt": "Smooth titanium coupons were coated with phosphatidylserine only as described in Example 5 at 222 μmol/mL. The experimental protocol used was as described in Example 3.", "note": "Entries after “also recorded” stand apart in the source; their conditions may differ.", "data": [{"substance": "Phosphatidylserine", "values": [{"measurement": "incubation time after which white circles were visible", "setting": "Simulated Body Fluid 37° C.", "value": "a few minutes"}, {"measurement": "EDAX analysis of coated area (calcium and phosphorus)", "setting": "Simulated Body Fluid 7 days 37° C.", "value": "capable of binding calcium to the surface of different implant coupons; also recorded: significant peaks for calcium and phosphorus"}]}]}
